{
  "source": "patent US11540515B2",
  "about": "“Use of dialkoxybenzenes for control of honey bee mite varroa destructor” (Simon Fraser University, priority 2018, dated 2023)",
  "system": "Varroa mites in honey bee colony",
  "experiment": "Colony test with solid 3c{3,6} in organza bags",
  "assay_type": "in vivo, Varroa destructor",
  "protocol": "Colony test. One colony of two supers was treated with solid 3c{3,6}, delivered in organza bags. The colony was otherwise healthy (apart from having Varroa mites), and the bee cluster reached over both boxes. Above the top box was placed a queen excluder and a top-feeding box. The following treatments were done: i) Day 1: 4×60 mg with bags placed above the cluster in the top box (below the queen excluder) only; ii) After 30 days: 4×60 mg with bags placed above the cluster in the top box (below the queen excluder) only; iii) After an additional 14 days, 4×100 mg with two bags placed on top of the lower box (i.e. between the two boxes) and two bags placed on top of the cluster on the top box (just below the queen excluder) iv) After an additional 7 days, 4×100 mg was added and the bags from the previous week were kept in. On the third treatment two Pasteur pipettes with Porapak (wedged between glass wool plugs in the pipette) were installed, one in the middle of the top cluster, the other on the edge of the cluster. These were removed. The colony was fitted with a screened bottom platform and a white Varroa counting drawer underneath the screen. Mites on the counting drawer board were counted every few days.\nPorapak cartridges were extracted with hexane:ethyl acetate (4:1) with 40 ng/μL of 1,4-dimethoxybenzene as internal standard. […]",
  "data": [
    {"compound": "C=CCOc1ccc(OCCC)cc1", "note": "[3c{3,6}, 1-allyloxy-4-propoxybenzene]", "values": [
      {"measurement": "amount of compound in Porapak", "setting": "Porapak at the center of the cluster", "result": 193, "unit": "ng"},
      {"measurement": "amount of compound in Porapak", "setting": "Porapak at the edge of the cluster", "result": 148, "unit": "ng"}
    ]}
  ]
}
